Publication PMC11220046
These are yes or no findings as the source states them, for the method shown. Binding seen in cells or lysates may run through a third protein. Some entries that bind do so weakly or less than the wild type.

The chains behind the UniProt entries cited, without tags or fusion partners. Residues count along the entry.
UniProt Q9BXM7, residues 78-581: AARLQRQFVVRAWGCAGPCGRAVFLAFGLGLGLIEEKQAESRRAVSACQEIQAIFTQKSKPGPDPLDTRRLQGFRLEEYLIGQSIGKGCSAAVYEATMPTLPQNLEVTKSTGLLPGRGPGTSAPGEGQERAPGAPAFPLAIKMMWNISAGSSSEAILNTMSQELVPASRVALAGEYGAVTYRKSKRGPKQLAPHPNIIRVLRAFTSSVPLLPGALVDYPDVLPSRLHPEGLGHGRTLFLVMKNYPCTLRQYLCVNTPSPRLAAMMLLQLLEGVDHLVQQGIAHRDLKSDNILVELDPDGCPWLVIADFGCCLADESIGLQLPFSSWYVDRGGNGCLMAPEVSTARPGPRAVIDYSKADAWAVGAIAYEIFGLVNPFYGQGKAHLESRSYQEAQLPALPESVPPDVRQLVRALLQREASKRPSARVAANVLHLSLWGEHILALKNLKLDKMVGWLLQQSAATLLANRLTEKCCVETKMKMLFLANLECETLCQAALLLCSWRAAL

Molecular target: PTEN-induced putative kinase 1 (human (endogenous in HK-2)) (UniProt Q9BXM7)
Assay: co-IP; antibody (or IgG) bound to protein A+G magnetic beads for 1 h at room temperature, lysate added overnight at 4 degrees Celsius, eluted in SDS loading buffer, immunoblot; HK-2 cell groups with LPS, ISO-1, OE-MIF or KD-MIF

B1: Macrophage migration inhibitory factor (protein, UniProt P14174 1-115)
chain: MPMFIVNTNVPRASVPDGFLSELTQQLAQATGKPPQYIAVHVVPDQLMAFGGSSEPCALCSLHSIGKIGGAQNRSYSKLLCGLLAERLRISPDRVYINYYDMNAANVGWNNSTFA
**Q.** Which binding does the source give for B1 here?
**A.** binds
